Measurements published in paper PMC12441857, “Cannabinoid CB1 Receptor Activation Mitigates N‑Methyl‑D‑aspartate Receptor-Mediated Neurotoxicity” (ACS Pharmacology & Translational Science, 2025).
These are yes or no findings as the source states them, for the method shown. In cells and extracts the contact can be indirect. Some binding calls cover weakened binding; strength is not graded here.

Sequences of proteins named here, by UniProt entry; tags and fusion partners are left off.
UniProt P21554: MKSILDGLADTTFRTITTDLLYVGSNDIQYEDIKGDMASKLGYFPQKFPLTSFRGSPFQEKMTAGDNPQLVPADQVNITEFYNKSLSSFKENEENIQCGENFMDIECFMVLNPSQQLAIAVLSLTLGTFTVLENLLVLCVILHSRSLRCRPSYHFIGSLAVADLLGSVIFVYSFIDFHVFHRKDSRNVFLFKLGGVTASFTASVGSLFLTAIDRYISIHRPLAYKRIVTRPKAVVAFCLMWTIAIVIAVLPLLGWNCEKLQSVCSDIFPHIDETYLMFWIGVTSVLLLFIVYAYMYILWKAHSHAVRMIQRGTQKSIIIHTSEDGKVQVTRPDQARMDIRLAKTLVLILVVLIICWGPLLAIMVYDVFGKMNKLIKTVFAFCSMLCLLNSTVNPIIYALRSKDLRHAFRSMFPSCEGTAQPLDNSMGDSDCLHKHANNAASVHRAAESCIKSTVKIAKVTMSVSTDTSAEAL
UniProt P32121: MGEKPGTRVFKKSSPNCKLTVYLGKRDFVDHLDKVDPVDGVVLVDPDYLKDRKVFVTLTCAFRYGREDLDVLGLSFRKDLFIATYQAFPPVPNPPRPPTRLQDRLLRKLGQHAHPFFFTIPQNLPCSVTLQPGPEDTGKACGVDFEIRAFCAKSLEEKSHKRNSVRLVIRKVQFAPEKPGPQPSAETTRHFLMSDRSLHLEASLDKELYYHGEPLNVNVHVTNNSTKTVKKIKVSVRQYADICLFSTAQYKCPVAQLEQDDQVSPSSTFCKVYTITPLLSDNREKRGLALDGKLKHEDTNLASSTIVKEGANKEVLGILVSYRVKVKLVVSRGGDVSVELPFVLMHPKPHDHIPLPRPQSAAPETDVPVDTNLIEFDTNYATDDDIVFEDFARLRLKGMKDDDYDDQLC

Tests used:
[1] = molecular target: N1 subunit of the NMDA receptor, endogenous in mouse primary cells (mouse (endogenous in primary microglia and neurons)) (UniProt P35438); assay: proximity ligation; Duolink II in situ PLA on fixed, permeabilised mouse primary microglia with rat monoclonal anti-N1 and rabbit polyclonal anti-CB1R; naive/resting cells, cells activated with 1 uM LPS and 200 U/mL IFN-gamma, and naive/resting cells from APPSw/Ind mice
[2] = molecular target: N1 subunit of the NMDA receptor, endogenous in mouse primary cells (mouse (endogenous in primary microglia and neurons)) (UniProt P35438); assay: proximity ligation; Duolink II in situ PLA on fixed, permeabilised mouse primary cortical and hippocampal neurons with rat monoclonal anti-N1 and rabbit polyclonal anti-CB1R; untreated, treated with Abeta1-42 oligomers (500 nM, 48 h), and neurons from APPSw/Ind mice
[3] = molecular target: cannabinoid CB1 receptor fused to YFP (CB1R-YFP) (human) (UniProt P21554); assay: FRET or BRET; ß-arrestin-2 recruitment BRET in HEK-293T cells 48 h after transfection with CB1R-YFP, N1, N2B and ß-arrestin-2-Rluc; antagonists (SR141617 or MK-801) 10 min, then agonists (ACEA and/or NMDA) or vehicle, coelenterazine H

cannabinoid CB1 receptor, endogenous in mouse primary cells (from UniProt P47746 1-473)
binding [1]: binds | binding [2]: binds

ß-arrestin-2 fused to Rluc (ß-arrestin-2-Rluc) (from UniProt P32121 1-409)
binding [3]: binds
